Test results as given in paper PMC6959991.
These are yes or no findings as the source states them, for the method shown. Binding seen in cells or lysates may run through a third protein. A yes stands for co-enrichment or nearness to the bait. Other partners may have been found.

Amino acid sequences for entries named in this document (tags omitted). Residues count along the entry.
UniProt Q6RJQ3, residues 26-338: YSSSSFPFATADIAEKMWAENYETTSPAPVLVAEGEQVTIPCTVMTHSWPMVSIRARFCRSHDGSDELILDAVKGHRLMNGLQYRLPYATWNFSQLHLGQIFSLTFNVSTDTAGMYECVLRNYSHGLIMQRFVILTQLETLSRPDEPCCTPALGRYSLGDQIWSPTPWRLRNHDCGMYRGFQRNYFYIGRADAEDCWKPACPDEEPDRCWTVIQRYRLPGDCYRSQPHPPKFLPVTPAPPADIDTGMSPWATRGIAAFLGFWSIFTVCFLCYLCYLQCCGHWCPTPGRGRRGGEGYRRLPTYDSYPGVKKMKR
UniProt P19438, residues 30-455: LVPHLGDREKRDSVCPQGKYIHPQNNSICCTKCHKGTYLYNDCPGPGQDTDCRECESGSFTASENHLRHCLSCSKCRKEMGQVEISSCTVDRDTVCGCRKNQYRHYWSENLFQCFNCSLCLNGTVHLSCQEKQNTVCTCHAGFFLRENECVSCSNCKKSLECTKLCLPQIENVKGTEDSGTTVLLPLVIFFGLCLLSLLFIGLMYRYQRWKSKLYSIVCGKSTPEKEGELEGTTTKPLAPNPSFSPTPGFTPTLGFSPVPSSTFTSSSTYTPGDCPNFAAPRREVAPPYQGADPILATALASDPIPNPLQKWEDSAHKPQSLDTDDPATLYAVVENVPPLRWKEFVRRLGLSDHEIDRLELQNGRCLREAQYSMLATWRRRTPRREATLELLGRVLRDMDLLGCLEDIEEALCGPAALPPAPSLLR
UniProt Q9UBN6, residues 56-386: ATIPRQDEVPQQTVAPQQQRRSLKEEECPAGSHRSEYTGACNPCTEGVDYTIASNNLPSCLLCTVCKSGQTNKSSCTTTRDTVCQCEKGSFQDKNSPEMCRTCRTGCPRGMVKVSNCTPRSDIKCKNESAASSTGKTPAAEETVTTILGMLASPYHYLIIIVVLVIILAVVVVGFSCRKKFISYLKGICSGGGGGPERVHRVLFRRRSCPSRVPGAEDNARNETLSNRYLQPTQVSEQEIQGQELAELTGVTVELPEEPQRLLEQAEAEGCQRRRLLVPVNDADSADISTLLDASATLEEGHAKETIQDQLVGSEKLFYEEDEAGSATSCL

Experiments:
[1] = molecular target: HCMV glycoprotein UL141 (human cytomegalovirus, strain Merlin) (UniProt Q6RJQ3); assay: affinity purification with mass spectrometry
[2] = molecular target: membrane protein US18 (human cytomegalovirus, strain Merlin); assay: affinity purification with mass spectrometry; as a1 but baits with more than one TM region, solubilised in 1% digitonin in TBS; CompPASS scored separately
[3] = molecular target: inhibitor of apoptosis UL36 (human cytomegalovirus, strain Merlin); assay: affinity purification with mass spectrometry
[4] = molecular target: ER-resident transmembrane glycoprotein US10 (human cytomegalovirus, strain Merlin); assay: affinity purification with mass spectrometry
[5] = molecular target: ORFL147C (human cytomegalovirus, strain Merlin); assay: affinity purification with mass spectrometry
[6] = molecular target: HCMV UL20 (human cytomegalovirus, strain Merlin); assay: affinity purification with mass spectrometry

## TNFRSF1A (from UniProt P19438 30-455)
[1]
  binding: binds

## TNFRSF10D (from UniProt Q9UBN6 56-386)
[1]
  binding: binds

B1: natural killer cell cytotoxicity receptor 3 ligand 1 (protein, UniProt Q68D85 25-454)
chain: DLKVEMMAGGTQITPLNDNVTIFCNIFYSQPLNITSMGITWFWKSLTFDKEVKVFEFFGDHQEAFRPGAIVSPWRLKSGDASLRLPGIQLEEAGEYRCEVVVTPLKAQGTVQLEVVASPASRLLLDQVGMKENEDKYMCESSGFYPEAINITWEKQTQKFPHPIEISEDVITGPTIKNMDGTFNVTSCLKLNSSQEDPGTVYQCVVRHASLHTPLRSNFTLTAARHSLSETEKTDNFSIHWWPISFIGVGLVLLIVLIPWKKICNKSSSAYTPLKCILKHWNSFDTQTLKKEHLIFFCTRAWPSYQLQDGEAWPPEGSVNINTIQQLDVFCRQEGKWSEVPYVQAFFALRDNPDLCQCCRIDPALLTVTSGKSIDDNSTKSEKQTPREHSDAVPDAPILPVSPIWEPPPATTSTTPVLSSQPPTLLLPLQ
[2]
  binding: binds

B2: F-box component FBOX3 (protein, UniProt Q9UK99 1-471)
chain: MAAMETETAPLTLESLPTDPLLLILSFLDYRDLINCCYVSRRLSQLSSHDPLWRRHCKKYWLISEEEKTQKNQCWKSLFIDTYSDVGRYIDHYAAIKKAWDDLKKYLEPRCPRMVLSLKEGAREEDLDAVEAQIGCKLPDDYRCSYRIHNGQKLVVPGLLGSMALSNHYRSEDLLDVDTAAGGFQQRQGLKYCLPLTFCIHTGLSQYIAVEAAEGRNKNEVFYQCPDQMARNPAAIDMFIIGATFTDWFTSYVKNVVSGGFPIIRDQIFRYVHDPECVATTGDITVSVSTSFLPELSSVHPPHYFFTYRIRIEMSKDALPEKACQLDSRYWRITNAKGDVEEVQGPGVVGEFPIISPGRVYEYTSCTTFSTTSGYMEGYYTFHFLYFKDKIFNVAIPRFHMACPTFRVSIARLEMGPDEYEEMEEEEEEEEEEDEDDDSADMDESDEDDEEERRRRVFDVPIRRRRCSRLF
[3]
  binding: binds

B3: Leucine Rich Repeat And Fibronectin Type III Domain Containing 3 (protein, UniProt Q9BTN0 17-628)
chain: SSPPQSATPSPCPRRCRCQTQSLPLSVLCPGAGLLFVPPSLDRRAAELRLADNFIASVRRRDLANMTGLLHLSLSRNTIRHVAAGAFADLRALRALHLDGNRLTSLGEGQLRGLVNLRHLILSNNQLAALAAGALDDCAETLEDLDLSYNNLEQLPWEALGRLGNVNTLGLDHNLLASVPAGAFSRLHKLARLDMTSNRLTTIPPDPLFSRLPLLARPRGSPASALVLAFGGNPLHCNCELVWLRRLAREDDLEACASPPALGGRYFWAVGEEEFVCEPPVVTHRSPPLAVPAGRPAALRCRAVGDPEPRVRWVSPQGRLLGNSSRARAFPNGTLELLVTEPGDGGIFTCIAANAAGEATAAVELTVGPPPPPQLANSTSCDPPRDGDPDALTPPSAASASAKVADTGPPTDRGVQVTEHGATAALVQWPDQRPIPGIRMYQIQYNSSADDILVYRMIPAESRSFLLTDLASGRTYDLCVLAVYEDSATGLTATRPVGCARFSTEPALRPCGAPHAPFLGGTMIIALGGVIVASVLVFIFVLLMRYKVHGGQPPGKAKIPAPVSSVCSQTNGALGPTPTPAPPAPEPAALRAHTVVQLDCEPWGPGHEPVGP
[4]
  binding: binds

B4: Ribonucleotide PTB-binding 1 (protein, UniProt Q8IY67 1-606)
chain: MAADVSVTHRPPLSPKSGAEVEAGDAAERRAPEEELPPLDPEEIRKRLEHTERQFRNRRKILIRGLPGDVTNQEVHDLLSDYELKYCFVDKYKGTAFVTLLNGEQAEAAINAFHQSRLRERELSVQLQPTDALLCVANLPPSLTQQQFEELVRPFGSLERCFLVYSERTGQSKGYGFAEYMKKDSAARAKSDLLGKPLGPRTLYVHWTDAGQLTPALLHSRCLCVDRLPPGFNDVDALCRALSAVHSPTFCQLACGQDGQLKGFAVLEYETAEMAEEAQQQADGLSLGGSHLRVSFCAPGPPGRSMLAALIAAQATALNRGKGLLPEPNILQLLNNLGPSASLQLLLNPLLHGSAGGKQGLLGAPPAMPLLNGPALSTALLQLALQTQGQKKPGILGDSPLGALQPGAQPANPLLGELPAGGGLPPELPPRRGKPPPLLPSVLGPAGGDREALGLGPPAAQLTPPPAPVGLRGSGLRGPLSHFYSGSPTSYFTSGLQAGLKQSHLSKAIGSSPLGSGEGLLGLSPGPNGHSHLLKVRAGGGDMQGWEAPAPQRPLTRPALPSVSRPHWAARNAALPTCCPRPSPAQKAAMWASTPRASAATTRTPT
[5]
  binding: binds

B5: Interferon Gamma Receptor 1 (protein, UniProt P15260 18-489)
chain: EMGTADLGPSSVPTPTNVTIESYNMNPIVYWEYQIMPQVPVFTVEVKNYGVKNSEWIDACINISHHYCNISDHVGDPSNSLWVRVKARVGQKESAYAKSEEFAVCRDGKIGPPKLDIRKEEKQIMIDIFHPSVFVNGDEQEVDYDPETTCYIRVYNVYVRMNGSEIQYKILTQKEDDCDEIQCQLAIPVSSLNSQYCVSAEGVLHVWGVTTEKSKEVCITIFNSSIKGSLWIPVVAALLLFLVLSLVFICFYIKKINPLKEKSIILPKSLISVVRSATLETKPESKYVSLITSYQPFSLEKEVVCEEPLSPATVPGMHTEDNPGKVEHTEELSSITEVVTTEENIPDVVPGSHLTPIERESSSPLSSNQSEPGSIALNSYHSRNCSESDHSRNGFDTDSSCLESHSSLSDSEFPPNNKGEIKTEGQELITVIKAPTSFGYDKPHVLVDLLVDDSGKESLIGYRPTEDSKEFS
[6]
  binding: binds
